According to article PMC9627522:
The exact form of at least one protein or probe is not confirmed.

System: GST-LlWRKY22 (Lilium longiflorum ('White Heaven'))
Test: EMSA
Conditions: EMSA kit (Thermo Fisher), 5'-biotin probes; pH and temperature not stated; recombinant protein; protein details: N-terminal GST (pGEX-4T-1); label: 5' biotin

| Sequence | binding result |
| --- | --- |
| ACTTCGTTGACCCAGCGGAGACAGATAGGTGAGACTGCCGAAGGCCGCTCGTGGTCGAGTTTCCCTTGACCTCGAC (double strand) [2B-probe (LlDREB2B promoter, tandem W-boxes)] | binds |
| CTAGAGCGGTGCTCCTCTATCCTTTTGACATTTGCAAAGTCAATCACGCGGGAAACGAAAAATCCGGA (double strand) [22-probe (LlWRKY22 promoter, tandem W-boxes)] | binds |
